According to article PMC11588057:

B1: endogenous HIRA (protein, UniProt O17468 1-1047)
chain: MRLLKPAWVHHDDKQIFSVDIHKDCTKFATGGQGSDCGRVVIWNLLPVLSDKAEFDADVPKMLCQMDQHLACVNCVRWSQNGQNLASGSDDKLIMIWRKSAGSSGVFGTGGMQKNHESWKCFYTLRGHDGDVLDLAWSPNDVYLASCSIDNTVIIWDAQAFPHSVATLKGHTGLVKGVSWDPLGRFLASQSDDRSIKIWNTMNWSLSHTITEPFEECGGTTHILRLSWSPDGQYLVSAHAMNGGGPTAQIIEREGWKCDKDFVGHRKAVTCVRFHNSILSRQENDGSPSKPLQYCCLAVGSRDRSLSVWMTALQRPMVVIHELFNASILDLTWGPQECLLMACSVDGSIACLKFTEEELGKAISEEEQNAIIRKMYGKNYVNGLGKSAPVLEHPQRLLLPQGDKPTKFPLSNNNEANQRPISKQTETRTKDGKRRITPMFIPLHEDGPTSLSMNIVSSSGSSTTALTSCSAAIGTLPAAAPTESAATPLMPLEPLVSKIDLGRLDSRLKTQPASQRRQSLPFDPGQSNELLRTPRLEEHQSSTCSPSNLNVTATGKSEFVKAALDYRLHVSNGHLKTQHGMLAKVTASDSKEMLWEFYVGSPLVNLNLCEKYAMLCSLDGSMRLISMETGCPVFPAISLTSSAVHCAFSPDNSLVGVLTECGLLRIWDIAKKVVSLAAGCLELLNKHGTAAQFSVTNQGMPLIGFPSGNSYSYSTSLQSWLVLATKDAIMYHGIRGTLPRDMDQMQQKFPLLSMQASSQNYFSFTGSMELRHSESWQQCAKIRFIENQIKLCEALQSLDELQHWHKMLTFQLATHGSEKRMRVFLDDLLSMPEPGISQFVPKLELMQCVLDTLKPHSEWNRLHSEYTELLKECKSERQKDIFATPAPPQQKTASSAGSSPRSGEATGEEVTEKDGATAVAAAVVAGSRMAVTTGTSTTTTTTASSSLSSSGSSSSTSGSGSSSSSSSTSSLSVPQPAPSLSPEIQTLDSPTVCIDDEILSASSSLPPLDTSPVEVSPASTSGGAASTSPAASVAGSAPVSSSKTDQT
B2: Myc-HIRA (protein, UniProt O17468 1-1047)
chain: B1 chain
B3: endogenous GAGA factor (GAF) (protein, UniProt Q08605 1-582)
chain: MSLPMNSLYSLTWGDYGTSLVSAIQLLRCHGDLVDCTLAAGGRSFPAHKIVLCAASPFLLDLLKNTPCKHPVVMLAGVNANDLEALLEFVYRGEVSVDHAQLPSLLQAAQCLNIQGLAPQTVTKDDYTTHSIQLQHMIPQHHDQDQLIATIATAPQQTVHAQVVEDIHHQGQILQATTQTNAAGQQQTIVTTDAAKHDQAVIQAFLPARKRKPRVKKMSPTAPKISKVEGMDTIMGTPTSSHGSGSVQQVLGENGAEGQLLSSTPIIKSEGQKVETIVTMDPNNMIPVTSANAATGEITPAQGATGSSGGNTSGVLSTPKAKRAKHPPGTEKPRSRSQSEQPATCPICYAVIRQSRNLRRHLELRHFAKPGVKKEKKTTSGKKSSSGSSGSGSGALSSSGSVPQVQTVQSLHTLQGVQVKKDPDAQQQQQQQQQQQQQQQQQAMTVSGATGGQVQQQVQQVQQQVQQQQQQQQQQQQQLQHHQIIDSSGNITTATTSAQAAAAAQQQAAGQQQQLVAQSDGSESGAPLSIAQVQTLQGHQIIGNLNQVNITDFQQQQPQQQQQQQQQQQQQQQQQQQTQQTL

Legend:
[1] = molecular target: endogenous dPCIF1 (Drosophila (endogenous in embryos)); test: co-IP; endogenous proteins in wild-type embryos, western blot
[2] = molecular target: Flag-tagged wild-type dPCIF1 (Drosophila); test: co-IP; Myc-HIRA with Flag-tagged wild-type and mutant dPCIF1 in S2 cells
[3] = molecular target: Flag-tagged dPCIF1^S111A (Drosophila); test: as above
[4] = molecular target: Flag-tagged dPCIF1^S115A (Drosophila); test: as above

Binder | binding [1] | binding [2] | binding [3] | binding [4]
B1 | binds | – | – | –
B2 | – | binds | binds | binds
B3 | no binding | – | – | –

These are yes or no findings as the source states them, for the method shown. In cells and extracts the contact can be indirect. A result given as binding can be weak or reduced; the word gives no strength. For some assays here: Sequences can lack the tags named with a protein.
